The values below come from paper PMC8639922, “KSHV transactivator-derived small peptide traps coactivators to attenuate MYC and inhibits leukemia and lymphoma cell growth” (Communications Biology, 2021).

Protein sequences, listed by entry. Tags and fused reporters are not part of them.
UniProt F5HCV3: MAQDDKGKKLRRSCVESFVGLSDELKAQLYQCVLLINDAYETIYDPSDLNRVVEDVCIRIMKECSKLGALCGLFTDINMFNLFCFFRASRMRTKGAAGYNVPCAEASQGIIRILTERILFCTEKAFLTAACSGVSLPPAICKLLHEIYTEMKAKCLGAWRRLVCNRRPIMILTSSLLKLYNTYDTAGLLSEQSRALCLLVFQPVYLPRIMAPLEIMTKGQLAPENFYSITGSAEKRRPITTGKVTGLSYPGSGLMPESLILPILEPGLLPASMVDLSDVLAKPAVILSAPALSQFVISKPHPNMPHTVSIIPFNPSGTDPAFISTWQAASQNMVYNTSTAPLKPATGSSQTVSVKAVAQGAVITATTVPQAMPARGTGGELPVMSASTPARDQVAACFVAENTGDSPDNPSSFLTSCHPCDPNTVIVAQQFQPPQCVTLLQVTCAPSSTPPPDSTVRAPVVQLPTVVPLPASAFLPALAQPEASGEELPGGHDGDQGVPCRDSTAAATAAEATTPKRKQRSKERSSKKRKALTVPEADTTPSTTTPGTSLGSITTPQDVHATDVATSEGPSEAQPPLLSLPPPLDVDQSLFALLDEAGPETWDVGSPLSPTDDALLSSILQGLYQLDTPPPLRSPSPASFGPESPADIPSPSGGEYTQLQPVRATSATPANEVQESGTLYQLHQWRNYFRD
UniProt Q15596: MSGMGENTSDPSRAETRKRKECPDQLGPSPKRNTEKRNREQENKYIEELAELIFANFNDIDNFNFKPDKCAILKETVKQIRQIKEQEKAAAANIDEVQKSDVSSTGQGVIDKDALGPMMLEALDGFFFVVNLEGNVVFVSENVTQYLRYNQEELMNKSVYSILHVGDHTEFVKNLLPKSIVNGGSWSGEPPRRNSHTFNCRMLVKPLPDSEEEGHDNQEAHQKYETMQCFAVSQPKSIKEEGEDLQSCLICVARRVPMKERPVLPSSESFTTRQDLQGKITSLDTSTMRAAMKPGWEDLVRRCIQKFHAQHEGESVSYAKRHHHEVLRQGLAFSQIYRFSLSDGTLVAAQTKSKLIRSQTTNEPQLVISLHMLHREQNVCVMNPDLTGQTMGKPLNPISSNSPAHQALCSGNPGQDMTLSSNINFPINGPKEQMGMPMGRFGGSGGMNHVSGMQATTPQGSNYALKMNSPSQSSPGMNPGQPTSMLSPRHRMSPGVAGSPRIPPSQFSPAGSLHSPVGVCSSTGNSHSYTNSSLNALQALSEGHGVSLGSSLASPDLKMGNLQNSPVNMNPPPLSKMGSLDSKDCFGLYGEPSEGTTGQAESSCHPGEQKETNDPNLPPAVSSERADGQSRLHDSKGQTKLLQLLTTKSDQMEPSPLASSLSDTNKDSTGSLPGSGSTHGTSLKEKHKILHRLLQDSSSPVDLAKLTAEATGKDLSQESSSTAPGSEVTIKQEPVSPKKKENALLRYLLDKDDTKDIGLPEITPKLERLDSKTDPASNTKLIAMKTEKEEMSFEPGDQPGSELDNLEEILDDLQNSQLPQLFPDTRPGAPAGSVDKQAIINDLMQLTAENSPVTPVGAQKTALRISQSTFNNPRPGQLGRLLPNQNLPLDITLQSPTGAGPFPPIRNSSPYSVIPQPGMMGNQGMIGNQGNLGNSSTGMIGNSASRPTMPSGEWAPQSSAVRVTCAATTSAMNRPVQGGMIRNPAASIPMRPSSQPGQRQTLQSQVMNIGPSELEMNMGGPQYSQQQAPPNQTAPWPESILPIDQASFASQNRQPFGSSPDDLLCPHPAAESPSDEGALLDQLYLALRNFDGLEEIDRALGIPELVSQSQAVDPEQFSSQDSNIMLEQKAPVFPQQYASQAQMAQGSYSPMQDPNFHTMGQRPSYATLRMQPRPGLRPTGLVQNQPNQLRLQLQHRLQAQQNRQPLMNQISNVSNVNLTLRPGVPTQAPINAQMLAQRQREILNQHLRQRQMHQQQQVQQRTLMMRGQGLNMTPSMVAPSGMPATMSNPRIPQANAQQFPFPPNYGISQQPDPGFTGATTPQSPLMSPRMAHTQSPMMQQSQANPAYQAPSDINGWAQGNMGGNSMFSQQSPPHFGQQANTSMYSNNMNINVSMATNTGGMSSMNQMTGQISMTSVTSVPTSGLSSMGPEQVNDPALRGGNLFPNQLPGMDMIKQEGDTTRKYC
UniProt Q09472: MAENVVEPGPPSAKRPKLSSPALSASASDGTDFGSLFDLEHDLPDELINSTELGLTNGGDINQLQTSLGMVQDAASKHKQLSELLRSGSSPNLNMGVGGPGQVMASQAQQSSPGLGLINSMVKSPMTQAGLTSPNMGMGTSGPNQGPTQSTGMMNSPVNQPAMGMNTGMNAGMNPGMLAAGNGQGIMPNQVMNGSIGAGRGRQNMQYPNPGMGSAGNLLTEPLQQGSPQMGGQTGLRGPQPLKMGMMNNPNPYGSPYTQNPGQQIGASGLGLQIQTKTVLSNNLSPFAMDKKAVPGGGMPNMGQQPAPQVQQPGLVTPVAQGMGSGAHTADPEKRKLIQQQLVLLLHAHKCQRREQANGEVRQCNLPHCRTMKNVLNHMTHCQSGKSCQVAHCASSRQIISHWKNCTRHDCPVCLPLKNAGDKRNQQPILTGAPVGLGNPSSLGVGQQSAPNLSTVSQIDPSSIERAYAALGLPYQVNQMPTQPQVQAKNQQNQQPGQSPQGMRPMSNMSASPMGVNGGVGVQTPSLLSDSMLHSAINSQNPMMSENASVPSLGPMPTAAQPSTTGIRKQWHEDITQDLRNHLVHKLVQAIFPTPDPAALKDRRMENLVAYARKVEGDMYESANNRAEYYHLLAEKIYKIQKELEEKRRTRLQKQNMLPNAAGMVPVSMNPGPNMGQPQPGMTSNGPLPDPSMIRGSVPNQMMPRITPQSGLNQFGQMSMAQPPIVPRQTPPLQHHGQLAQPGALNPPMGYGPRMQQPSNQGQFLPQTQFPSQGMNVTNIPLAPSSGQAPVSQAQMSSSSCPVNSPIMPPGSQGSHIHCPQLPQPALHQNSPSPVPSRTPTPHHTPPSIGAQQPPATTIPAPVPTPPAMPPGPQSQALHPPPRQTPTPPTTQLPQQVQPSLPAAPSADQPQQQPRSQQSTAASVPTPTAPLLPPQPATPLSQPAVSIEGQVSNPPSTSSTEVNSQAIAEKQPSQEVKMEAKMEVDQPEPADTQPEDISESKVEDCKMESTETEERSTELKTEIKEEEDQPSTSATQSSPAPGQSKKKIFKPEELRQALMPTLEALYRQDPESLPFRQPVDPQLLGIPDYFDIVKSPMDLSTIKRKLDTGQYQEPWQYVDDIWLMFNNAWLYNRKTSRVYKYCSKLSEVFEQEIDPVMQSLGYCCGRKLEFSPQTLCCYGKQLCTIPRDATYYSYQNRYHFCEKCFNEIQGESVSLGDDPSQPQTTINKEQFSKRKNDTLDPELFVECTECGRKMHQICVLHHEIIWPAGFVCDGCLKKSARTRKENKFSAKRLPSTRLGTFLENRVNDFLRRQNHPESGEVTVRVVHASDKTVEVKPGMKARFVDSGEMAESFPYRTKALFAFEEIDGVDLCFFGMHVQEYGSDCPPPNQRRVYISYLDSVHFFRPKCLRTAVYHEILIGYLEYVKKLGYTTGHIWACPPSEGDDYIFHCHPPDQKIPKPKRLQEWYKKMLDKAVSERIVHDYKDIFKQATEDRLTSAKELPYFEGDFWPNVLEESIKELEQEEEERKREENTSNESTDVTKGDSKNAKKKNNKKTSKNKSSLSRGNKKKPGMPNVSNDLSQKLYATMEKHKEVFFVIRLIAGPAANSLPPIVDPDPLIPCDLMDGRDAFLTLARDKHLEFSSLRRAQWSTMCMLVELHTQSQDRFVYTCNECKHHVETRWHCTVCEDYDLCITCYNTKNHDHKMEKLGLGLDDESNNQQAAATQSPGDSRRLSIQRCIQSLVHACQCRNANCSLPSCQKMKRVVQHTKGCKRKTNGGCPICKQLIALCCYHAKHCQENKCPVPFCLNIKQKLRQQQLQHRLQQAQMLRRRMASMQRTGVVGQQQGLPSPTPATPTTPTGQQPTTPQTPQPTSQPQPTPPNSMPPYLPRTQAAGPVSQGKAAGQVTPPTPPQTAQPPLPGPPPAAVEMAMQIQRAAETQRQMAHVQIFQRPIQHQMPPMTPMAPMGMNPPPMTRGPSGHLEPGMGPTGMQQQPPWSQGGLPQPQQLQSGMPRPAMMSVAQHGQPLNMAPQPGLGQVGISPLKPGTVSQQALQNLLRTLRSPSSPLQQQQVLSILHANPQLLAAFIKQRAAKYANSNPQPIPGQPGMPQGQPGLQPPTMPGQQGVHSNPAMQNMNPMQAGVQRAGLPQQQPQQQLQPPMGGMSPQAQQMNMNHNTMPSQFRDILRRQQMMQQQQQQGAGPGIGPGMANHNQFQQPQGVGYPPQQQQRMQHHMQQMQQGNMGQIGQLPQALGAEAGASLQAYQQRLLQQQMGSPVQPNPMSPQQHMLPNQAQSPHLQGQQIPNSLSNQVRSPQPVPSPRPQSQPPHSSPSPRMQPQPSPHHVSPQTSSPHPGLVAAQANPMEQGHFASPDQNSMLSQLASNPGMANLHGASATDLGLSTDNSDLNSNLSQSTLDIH

No constants are given. Whether binding was seen depends on the method and setting. In cells and extracts the contact can be indirect. A yes stands for co-enrichment or nearness to the bait. Other partners may have been found.

The test addresses Flag-tagx3-HA-tagx3 (F3H3)-K-Rta, KSHV replication and transactivation protein (Kaposi's sarcoma-associated herpesvirus (human herpesvirus 8)) (UniProt F5HCV3). Put plainly: affinity purification with mass spectrometry.

“Nuclear receptor coactivator 2 (from UniProt Q15596 1-1464)”: the binding result is “binds”.
Next, “p300 histone acetylase (from UniProt Q09472 1-2414)”: “binds”.
